Results are given in words; binding and its absence hold for the method and conditions named. Binding seen in cells or lysates may run through a third protein. Some results given as binding are weak or reduced against the parent protein; the word gives no strength. For part of these data: Where a sequence is shown, tags or fusion partners need not be part of it.
Legend:
[1] = target: GST-NS5A (Full) (Hepatitis C virus (genotype not stated)) (UniProt Q9WMX2); test: pull-down; GST pulldown: HEK293 cells co-transfected for 48 h; 1 mg of cell lysate incubated with 20 ul glutathione-Sepharose beads at 4 °C overnight, beads washed three times with lysis buffer; immunoblotting
[2] = target: NS5A of Huh-neo-5-15 subgenomic replicon cells (Hepatitis C virus (subgenomic replicon in Huh-neo-5-15 cells)) (UniProt Q9WMX2); test: co-IP; Huh-neo-5-15 subgenomic replicon cells; 1 mg of total cell lysate incubated with mouse normal IgG or an NS5A antibody for 12 h at 4 °C, then protein A/G agarose beads for 2 h; immunoblotting

B1: SCOTIN-MYC (protein, UniProt Q9D7I0 27-235)
chain: ELCRPFGEDNSIPVFCPDFCCGSCSNQYCCSDVLRKIQWNEEMCPEPESRFSTPAEETPEHLGSALKFRSSFDSDPMSGFGATVAIGVTIFVVFIATIIICFTCSCCCLYKMCCPQRPVVTNTTTTTVVHAPYPQPQPQPVAPSYPGPTYQGYHPMPPQPGMPAAPYPTQYPPPYLAQPTGPPPYHESLAGASQPPYNPTYMDSLKTIP
- binding [1]: binds

B2: SCOTIN-V5 (protein, UniProt Q9D7I0 27-235)
chain: ELCRPFGEDNSIPVFCPDFCCGSCSNQYCCSDVLRKIQWNEEMCPEPESRFSTPAEETPEHLGSALKFRSSFDSDPMSGFGATVAIGVTIFVVFIATIIICFTCSCCCLYKMCCPQRPVVTNTTTTTVVHAPYPQPQPQPVAPSYPGPTYQGYHPMPPQPGMPAAPYPTQYPPPYLAQPTGPPPYHESLAGASQPPYNPTYMDSLKTIP
- binding [1]: binds

B3: endogenous SCOTIN (protein, UniProt Q8N114 29-240)
chain: EVCMASRGLSLFPESCPDFCCGTCDDQYCCSDVLKKFVWSEERCAVPEASVPASVEPVEQLGSALRFRPGYNDPMSGFGATLAVGLTIFVLSVVTIIICFTCSCCCLYKTCRRPRPVVTTTTSTTVVHAPYPQPPSVPPSYPGPSYQGYHTMPPQPGMPAAPYPMQYPPPYPAQPMGPPAYHETLAGGAAAPYPASQPPYNPAYMDAPKAAL
- binding [2]: binds
